These are yes or no findings as the source states them, for the method shown. Binding seen in cells or lysates may run through a third protein. These calls come from enrichment with a bait or labelling near it, and not all partners need be listed.

Protein sequences, listed by entry. Tags and fused reporters are not part of them.
UniProt P46937: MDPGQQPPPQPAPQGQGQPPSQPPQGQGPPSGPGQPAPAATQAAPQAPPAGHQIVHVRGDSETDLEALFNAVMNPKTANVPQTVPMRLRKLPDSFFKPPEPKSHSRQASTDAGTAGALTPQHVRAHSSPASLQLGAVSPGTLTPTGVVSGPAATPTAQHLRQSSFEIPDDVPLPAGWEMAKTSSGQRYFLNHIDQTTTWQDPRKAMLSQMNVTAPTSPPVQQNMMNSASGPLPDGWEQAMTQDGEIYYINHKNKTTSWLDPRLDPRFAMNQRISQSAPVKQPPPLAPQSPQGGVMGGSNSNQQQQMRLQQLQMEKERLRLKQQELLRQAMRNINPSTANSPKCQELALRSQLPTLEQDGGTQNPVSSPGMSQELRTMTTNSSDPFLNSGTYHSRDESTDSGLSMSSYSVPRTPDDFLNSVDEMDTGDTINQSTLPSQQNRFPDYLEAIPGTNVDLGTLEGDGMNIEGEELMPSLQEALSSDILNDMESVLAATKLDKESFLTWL
UniProt Q9GZV5: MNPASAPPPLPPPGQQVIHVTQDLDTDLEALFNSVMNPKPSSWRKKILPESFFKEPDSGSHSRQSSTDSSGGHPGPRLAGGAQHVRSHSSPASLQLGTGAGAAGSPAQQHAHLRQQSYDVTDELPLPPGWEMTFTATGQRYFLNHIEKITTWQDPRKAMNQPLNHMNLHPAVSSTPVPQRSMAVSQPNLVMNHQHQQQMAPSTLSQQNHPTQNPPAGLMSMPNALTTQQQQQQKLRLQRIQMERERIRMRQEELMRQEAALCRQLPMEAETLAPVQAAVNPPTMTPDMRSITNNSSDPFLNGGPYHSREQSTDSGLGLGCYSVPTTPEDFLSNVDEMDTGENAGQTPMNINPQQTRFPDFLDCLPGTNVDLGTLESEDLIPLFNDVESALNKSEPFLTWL
UniProt P46109: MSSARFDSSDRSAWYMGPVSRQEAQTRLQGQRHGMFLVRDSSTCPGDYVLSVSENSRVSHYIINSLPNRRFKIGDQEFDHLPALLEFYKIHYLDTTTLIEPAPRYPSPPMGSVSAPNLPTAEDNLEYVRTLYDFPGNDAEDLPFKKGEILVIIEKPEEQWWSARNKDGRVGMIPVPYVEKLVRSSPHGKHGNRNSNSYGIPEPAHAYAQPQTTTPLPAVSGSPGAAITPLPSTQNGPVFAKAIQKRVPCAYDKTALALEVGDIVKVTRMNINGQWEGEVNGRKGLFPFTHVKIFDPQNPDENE
UniProt P50552: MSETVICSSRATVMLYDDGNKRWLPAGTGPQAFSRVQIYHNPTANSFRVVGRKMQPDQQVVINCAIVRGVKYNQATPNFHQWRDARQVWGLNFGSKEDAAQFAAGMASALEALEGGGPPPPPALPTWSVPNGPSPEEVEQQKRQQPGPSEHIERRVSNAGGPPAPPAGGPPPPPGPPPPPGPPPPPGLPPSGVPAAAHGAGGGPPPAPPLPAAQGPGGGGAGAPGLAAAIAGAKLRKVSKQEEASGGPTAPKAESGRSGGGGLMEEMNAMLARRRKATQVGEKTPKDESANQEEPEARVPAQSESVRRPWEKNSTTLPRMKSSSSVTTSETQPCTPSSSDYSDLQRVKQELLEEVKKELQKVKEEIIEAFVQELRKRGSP
UniProt Q9Y2J4: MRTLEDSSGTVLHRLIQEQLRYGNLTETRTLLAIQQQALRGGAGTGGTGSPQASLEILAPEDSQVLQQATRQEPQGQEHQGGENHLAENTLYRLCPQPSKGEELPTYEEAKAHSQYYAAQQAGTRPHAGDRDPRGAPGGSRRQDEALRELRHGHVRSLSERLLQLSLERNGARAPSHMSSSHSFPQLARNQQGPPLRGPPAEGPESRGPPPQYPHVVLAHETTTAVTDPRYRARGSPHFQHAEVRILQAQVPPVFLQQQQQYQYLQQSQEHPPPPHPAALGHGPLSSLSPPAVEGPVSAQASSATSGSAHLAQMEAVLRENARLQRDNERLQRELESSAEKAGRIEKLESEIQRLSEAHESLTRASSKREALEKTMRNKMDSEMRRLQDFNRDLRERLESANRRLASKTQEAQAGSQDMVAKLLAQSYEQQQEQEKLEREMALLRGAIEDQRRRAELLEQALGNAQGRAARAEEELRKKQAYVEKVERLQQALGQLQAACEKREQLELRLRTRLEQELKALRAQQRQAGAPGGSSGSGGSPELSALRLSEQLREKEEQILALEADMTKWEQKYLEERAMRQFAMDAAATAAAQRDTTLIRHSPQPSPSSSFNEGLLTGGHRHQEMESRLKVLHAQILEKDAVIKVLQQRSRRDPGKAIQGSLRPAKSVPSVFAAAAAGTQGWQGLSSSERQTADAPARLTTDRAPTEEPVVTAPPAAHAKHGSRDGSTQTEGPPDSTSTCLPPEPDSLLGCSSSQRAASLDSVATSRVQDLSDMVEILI
UniProt P35240: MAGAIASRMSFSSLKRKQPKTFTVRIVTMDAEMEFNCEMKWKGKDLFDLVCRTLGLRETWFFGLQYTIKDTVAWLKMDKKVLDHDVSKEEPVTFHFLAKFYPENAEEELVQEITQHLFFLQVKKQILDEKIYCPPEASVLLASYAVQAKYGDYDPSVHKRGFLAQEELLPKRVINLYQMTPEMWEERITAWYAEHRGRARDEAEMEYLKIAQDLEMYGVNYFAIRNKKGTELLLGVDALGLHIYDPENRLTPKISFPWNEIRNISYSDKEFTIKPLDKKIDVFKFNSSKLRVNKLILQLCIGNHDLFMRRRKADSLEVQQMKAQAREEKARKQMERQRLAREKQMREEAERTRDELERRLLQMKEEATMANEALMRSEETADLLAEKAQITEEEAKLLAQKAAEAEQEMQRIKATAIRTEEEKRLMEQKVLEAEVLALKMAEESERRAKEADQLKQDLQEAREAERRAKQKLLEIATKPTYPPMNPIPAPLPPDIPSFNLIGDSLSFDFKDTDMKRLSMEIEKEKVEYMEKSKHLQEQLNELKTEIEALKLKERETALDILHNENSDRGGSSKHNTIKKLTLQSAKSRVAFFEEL
UniProt Q70E73: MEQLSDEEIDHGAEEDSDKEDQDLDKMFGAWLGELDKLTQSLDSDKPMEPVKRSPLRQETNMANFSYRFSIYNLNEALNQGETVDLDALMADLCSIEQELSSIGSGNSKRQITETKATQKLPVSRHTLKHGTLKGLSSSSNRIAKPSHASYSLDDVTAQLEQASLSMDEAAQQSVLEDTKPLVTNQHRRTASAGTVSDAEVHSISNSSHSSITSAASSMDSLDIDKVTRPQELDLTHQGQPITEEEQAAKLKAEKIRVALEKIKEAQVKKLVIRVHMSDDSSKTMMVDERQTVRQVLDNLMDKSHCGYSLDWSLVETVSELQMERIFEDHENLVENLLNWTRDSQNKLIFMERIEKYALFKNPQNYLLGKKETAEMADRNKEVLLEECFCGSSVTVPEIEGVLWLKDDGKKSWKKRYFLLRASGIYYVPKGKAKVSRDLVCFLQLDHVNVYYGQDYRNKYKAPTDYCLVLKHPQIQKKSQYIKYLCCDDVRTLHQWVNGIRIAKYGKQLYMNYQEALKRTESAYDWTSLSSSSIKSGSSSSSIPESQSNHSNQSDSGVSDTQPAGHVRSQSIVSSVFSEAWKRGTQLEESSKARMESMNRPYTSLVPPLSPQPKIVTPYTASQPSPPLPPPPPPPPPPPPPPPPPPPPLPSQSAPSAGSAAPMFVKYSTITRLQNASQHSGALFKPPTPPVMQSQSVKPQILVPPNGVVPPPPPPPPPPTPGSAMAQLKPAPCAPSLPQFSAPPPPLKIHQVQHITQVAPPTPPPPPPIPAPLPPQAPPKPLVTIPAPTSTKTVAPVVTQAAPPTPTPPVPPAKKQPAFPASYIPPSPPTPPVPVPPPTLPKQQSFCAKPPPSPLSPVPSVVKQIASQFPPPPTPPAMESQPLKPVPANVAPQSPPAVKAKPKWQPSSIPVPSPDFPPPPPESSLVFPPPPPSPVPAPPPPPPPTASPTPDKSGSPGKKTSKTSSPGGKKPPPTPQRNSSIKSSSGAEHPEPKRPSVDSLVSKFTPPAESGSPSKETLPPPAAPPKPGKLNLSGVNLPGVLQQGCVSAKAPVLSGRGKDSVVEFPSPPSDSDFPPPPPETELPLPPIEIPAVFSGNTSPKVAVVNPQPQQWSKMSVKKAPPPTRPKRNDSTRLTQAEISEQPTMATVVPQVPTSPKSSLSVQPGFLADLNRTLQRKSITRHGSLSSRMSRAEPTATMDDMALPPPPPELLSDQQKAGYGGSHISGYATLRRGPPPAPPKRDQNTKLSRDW
UniProt P46108: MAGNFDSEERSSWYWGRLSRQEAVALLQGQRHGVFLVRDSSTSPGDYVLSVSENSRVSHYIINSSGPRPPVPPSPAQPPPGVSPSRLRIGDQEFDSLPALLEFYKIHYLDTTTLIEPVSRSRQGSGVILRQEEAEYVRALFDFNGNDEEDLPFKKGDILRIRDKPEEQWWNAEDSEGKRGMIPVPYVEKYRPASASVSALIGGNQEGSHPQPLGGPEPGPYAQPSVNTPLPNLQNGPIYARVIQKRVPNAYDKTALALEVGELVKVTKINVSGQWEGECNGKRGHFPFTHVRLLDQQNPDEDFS

Data on six substances can be found in publication PMC11312940.

The target in assay [1] is BirA-tagged YAP (yes-associated protein), N-terminal fusion with the biotin ligase BirA and a Flag-tag (UniProt P46937). The assay is described as follows: proximity labelling; BioID: BirA-Flag-YAP or -TAZ induced with doxycycline 24 h in stable HLF cells, 50 µM biotin 24 h; streptavidin magnetic beads; LC-MS/MS of four replicates; hits against the BirA-only control (fold change ≥ 2; false discovery rate ≤ 0.05).

The target in assay [2] is BirA-tagged TAZ (WW-domain containing transcription regulator 1, WWTR1), N-terminal fusion with the biotin ligase BirA and a Flag-tag (UniProt Q9GZV5). The description is as above.

For the substance “CRK-like proto-oncogene adaptor protein (CRKL) (from UniProt P46109 1-303)”, the binding result in assay [1] is reported as “binds”.

Regarding “VASP (Vasodilator-stimulated phosphoprotein) (from UniProt P50552 1-380)”, the binding entry in assay [1] and in assay [2] was “binds” throughout.

For “angiomotin-like 2 (AMOTL2) (from UniProt Q9Y2J4 1-779)”, the binding result in assay [1] and in assay [2] was “binds” throughout.

As to “neurofibromin-2 (NF2) (from UniProt P35240 1-595)”, the binding result in assay [2] is “binds”.

Consider “RAPH1 (Ras Association and Pleckstrin Homology domains 1) (from UniProt Q70E73 1-1250)”, for which the binding result in assay [1] and in assay [2] was “binds” each time.

For the substance “CRK (CT10 Regulator of Kinase) (from UniProt P46108 1-304)”, the binding entry in assay [1] and in assay [2] was “binds” throughout.
